Data: PubChem BioAssay AID504834 (National Center for Advancing Translational Sciences (NCATS), 2011)
Several values for one entry are separate records, joined by “and”; a condition that tells them apart may be missing. Identical values can stand only once. About 22,000 (6.9%) of roughly 320,000 compounds were called active. The shares of active, inactive and inconclusive entries below differ from those in the screen. Calls follow the shape of the dose curve; as a rule, active = well fitted inhibition curve with a large enough effect; inconclusive = small, poorly fitted or top-dose-only effect, or another doubt; inactive = no such curve, though single readings can be large or run the other way. Where the call is inconclusive, the potency comes from a doubtful curve fit. A structure can be active in one record and inactive in another.

assay: Primary qHTS for delayed death inhibitors of the malarial parasite plastid, 96 hour incubation; conditions: P. falciparum luciferase reporter growth; series mostly up to 28.7 µM; activity change, negative = inhibition: at the top concentration
In short: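 Two-generation exposure (96 h) targets delayed-death phenotype. Reporter parasites carrying integrated firefly luciferase, in red cells at 2% hematocrit and 0.05% parasitemia final, kept at 37 C, 5% CO2; luminescence loss indicates inhibition.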
% is scaled to controls: 0 for no effect and ±100 for the full control effect; potency is read from the fitted curve at half-maximal effect.

Compound	Potency	activity change, negative = inhibition
CCN(CC)S(=O)(=O)c1ccc(N2CCN(C)CC2)c(NC(=O)Nc2ccc(C)cc2)c1	inconclusive: 11.7 µM [inhibitor, single point]	–
CCC(C(=O)Nc1cccc(C(=O)O)c1C)c1ccccc1 (stereo not given)	–	inactive: 2.47%
Cc1nnc(NC(=O)c2ccc(S(=O)(=O)N3CCCCC3C)cc2)o1 (stereo not given)	inconclusive: 7.38 µM [inhibitor, partial curve, poor fit]	–
Cc1ccccc1NC(=O)c1ccc2nccnc2c1	inconclusive: 18.5 µM [inhibitor, single point]	–
CC1=C(C(=O)OCc2ccccc2)C(c2ccc(-c3ccccc3)cc2)NC(=O)N1CCCCCC(=O)O (stereo not given)	inconclusive: 14.7 µM [inhibitor, partial curve, poor fit]	–
O=C1Cc2ccccc2N1c1c(Cl)cccc1Cl	active: 3.29 µM	–
O=C(O)/C=C/C(=O)Nc1ccccc1C(=O)OCC(=O)c1ccc2c(c1)OCCO2	inconclusive: 10.4 µM [inhibitor, single point]	–
Cc1ccc(/C=C(\C#N)C(=O)N2CCCC2)c(C)c1	–	inactive: 20%
CSc1ccc(C2C3(C#N)C(N)=NC4(OCCO4)C23C#N)cc1 (stereo not given)	inconclusive: 0.185 µM [inhibitor, full curve, poor fit]	–
CC1(C)N([O-])C(c2cccs2)=C[N+]1=O	active: 10.4 µM	–
CCOc1ccc(-c2c(C(=O)N/N=C/c3ccc(Cl)cc3)nnn2-c2nonc2N)cc1	inconclusive: 13.1 µM [inhibitor, partial curve, poor fit]	–
COc1ccc(OC)c(Nc2cc(-c3ccccc3)nc(N)n2)c1	–	inactive: 30.8%
CN(C)C(=O)Oc1ccc[n+](C)c1	inconclusive: 10.7 µM [inhibitor, partial curve, poor fit] and inconclusive: 8.28 µM [inhibitor, partial curve, poor fit]	–
CC(C)Cc1nnc(NC(=O)CCC(=O)NC2CCCC2)s1	inconclusive: 11.7 µM [inhibitor, single point]	–
CCN(CC(=O)NCc1cccs1)C(=O)c1ccc(S(=O)(=O)N(CC)c2ccccc2)cc1	–	inactive: -28.6%
O=C(COc1ccc2c3c(c(=O)oc2c1)CCC3)NCc1cccnc1	inconclusive: 13.1 µM [inhibitor, partial curve]	–
S=C(NCCN1CCOCC1)Nc1ccc(-c2nc3ccccc3[nH]2)cc1	inconclusive: 5.86 µM [inhibitor, single point]	–
O=c1c2cc(Br)ccc2[nH]c(=S)n1Cc1ccccn1	inconclusive: 3.7 µM [inhibitor, single point]	–
COc1cc(C)c(S(=O)(=O)N2CCN(C)CC2)cc1C	inconclusive: 18.5 µM [inhibitor, single point]	–
Cn1c(N)c(C(=O)CSc2nc(C3CC3)n(-c3ccccc3)n2)c(=O)n(C)c1=O	inconclusive: 2.62 µM [inhibitor, single point]	–
COc1c(N)c2ccccc2[nH]c1=O	inconclusive: 1.47 µM [inhibitor, full curve, poor fit]	–
COc1cc(-c2nnc(SCC(=O)N3CCOCC3)o2)cc(OC)c1OC	inconclusive: 18.5 µM [inhibitor, single point]	–
O=C(CCc1ccccc1)Nc1cc2c(cc1Cl)OCCO2	–	inactive: 251%

Compound	Potency	activity change, negative = inhibition
CC(=NCCCn1ccnc1)c1c(O)n(C)c(=O)n(C)c1=O	active: 10.4 µM	–
Cc1nnsc1Sc1ccccc1C(=O)O	–	inactive: 33.2% [at 5.75 µM]
O=C(O)c1ccc(NC(=S)NC(=O)c2ccc3ccccc3c2)cc1	–	inactive: -15.1%
O=C1C(C=NCCN2CCOCC2)=C(O)c2ccccc21	inconclusive: 0.0029 µM [inhibitor, full curve, poor fit]	–
O=S(=O)(NCC(c1ccc2c(c1)OCO2)N1CCOCC1)c1ccccc1 (stereo not given)	–	inactive: -0.519%
C=CCOC(=O)C(=O)/C=C/c1ccc2c(c1)Cc1ccccc1-2	–	inactive: 0%
COc1ccccc1N1CCN(CC(=O)Nc2sccc2C#N)CC1	inconclusive: 10.4 µM [inhibitor, single point]	–
CCOc1ccc(CN(C)C(=O)CN2C(=O)NC(c3ccccc3)(c3ccccc3)C2=O)cc1	inconclusive: 18.5 µM [inhibitor, single point]	–
CCN(CC)c1ccc2ccc(=O)oc2c1	active: 9.28 µM	–
CCN(CC)S(=O)(=O)c1cccc(C(=O)NC2=NCCS2)c1	inconclusive: 13.1 µM [inhibitor, single point]	–
CCOc1ccc(C(C(=O)Nc2ccc(F)cc2)N(C(=O)Cn2nnc3ccccc32)C2CC2)cc1 (stereo not given)	active: 4.65 µM	–
CC(C)N(Cc1nccn1C)C(=O)c1cc(COc2ccc3ncccc3c2)on1	inconclusive: 14.7 µM [inhibitor, single point]	–
CCN(Cc1nc2ccccc2c(=O)[nH]1)C(=O)COc1ccccc1-c1ccccc1	active: 9.28 µM	–
CC1(C)SC(=S)N(/N=C/c2cccnc2)C1N(O)C(=O)NC1CCCCC1 (stereo not given)	inconclusive: 2.62 µM [inhibitor, full curve]	–
Cc1ccc(S(=O)(=O)N2CCOCC2)cc1NC(=O)CSc1nnc2cc(C)c3ccccc3n12	active: 13.1 µM	–
Cc1ccc(CN2C(=O)c3ccccc3NC23CCN(Cc2ccccc2)CC3)cc1	inconclusive: 5.86 µM [inhibitor, partial curve, poor fit]	–
Cc1ccc(/C=C2\SC(=S)N(CCCC(=O)NC3CCCC3)C2=O)cc1	inconclusive: 18.5 µM [inhibitor, single point]	–
O=S(=O)(c1ccccc1)N1CCC(n2cnc3ccccc32)CC1	–	inactive: 24.8%
CCOC(=O)c1ccc(NC(=S)N2CCCC(C)C2)cc1 (stereo not given)	inconclusive: 0.738 µM [inhibitor, full curve, poor fit]	–
COc1cc(/C=C/c2ccc3c(Br)cc(Br)c(O)c3n2)ccc1O	active: 3.7 µM	–
CCOC(=O)Nc1ccc2c(c1)N(C(=O)OCCN(C)C)c1ccccc1CC2	inactive and active: 1.47 µM	–
C/C(=N\NC(=O)Cc1ccc(O)cc1)c1cccnc1	inconclusive: 18.5 µM [inhibitor, single point]	–
